Data from PMC7862700.
Only a part is listed here, and it is no random draw. For part of these data: At the low end of the ranking the order means little. The list shows a part of the results. For part of these data: The exact form of the protein is not confirmed.

The chains behind the UniProt entries cited, without tags or fusion partners. Where a name states a change or a piece, a line headed by the entry shows the natural chain unless it says otherwise.
UniProt Q00613: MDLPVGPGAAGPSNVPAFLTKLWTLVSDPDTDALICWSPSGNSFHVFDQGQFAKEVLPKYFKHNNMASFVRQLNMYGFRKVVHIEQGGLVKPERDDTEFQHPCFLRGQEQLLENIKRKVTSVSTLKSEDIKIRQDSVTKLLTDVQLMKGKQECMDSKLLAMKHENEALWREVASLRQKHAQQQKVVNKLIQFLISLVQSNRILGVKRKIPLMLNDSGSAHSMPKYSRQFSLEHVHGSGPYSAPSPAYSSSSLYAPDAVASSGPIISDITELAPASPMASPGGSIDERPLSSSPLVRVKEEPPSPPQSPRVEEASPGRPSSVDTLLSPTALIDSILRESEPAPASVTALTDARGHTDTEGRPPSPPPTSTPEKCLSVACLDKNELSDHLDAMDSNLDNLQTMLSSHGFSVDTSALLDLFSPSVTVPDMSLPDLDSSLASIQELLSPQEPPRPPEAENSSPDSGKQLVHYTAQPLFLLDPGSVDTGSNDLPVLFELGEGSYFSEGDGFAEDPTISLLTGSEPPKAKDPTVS

What was measured:
HSF1 = HSF1 (UniProt Q00613); test: DAPPL (digital affinity profiling via proximity ligation, sequencing); details: 10 mM Tris-HCl pH 7.5, 50 mM NaCl, 1 mM DTT, 4% glycerol, room temperature, 30 min; GST-TFs on glutathione beads, 16-mer random dsDNA library, 0.1% …; high values mean tight binding; double strand, one strand shown; scale: fold enrichment (6-mer frequency, TF over GST control)
ELF2 = target: T1, ELF2 (UniProt Q15723); test: as above; details: 10 mM Tris-HCl pH 7.5, 50 mM NaCl, 1 mM DTT, 4% glycerol, room temperature, 30 min; GST-TFs on glutathione beads, 16-mer random dsDNA library, 0.1% …; high values mean tight binding; double strand, one strand shown; scale: fold enrichment (6-mer frequency, TF over GST control)
T1 sequence: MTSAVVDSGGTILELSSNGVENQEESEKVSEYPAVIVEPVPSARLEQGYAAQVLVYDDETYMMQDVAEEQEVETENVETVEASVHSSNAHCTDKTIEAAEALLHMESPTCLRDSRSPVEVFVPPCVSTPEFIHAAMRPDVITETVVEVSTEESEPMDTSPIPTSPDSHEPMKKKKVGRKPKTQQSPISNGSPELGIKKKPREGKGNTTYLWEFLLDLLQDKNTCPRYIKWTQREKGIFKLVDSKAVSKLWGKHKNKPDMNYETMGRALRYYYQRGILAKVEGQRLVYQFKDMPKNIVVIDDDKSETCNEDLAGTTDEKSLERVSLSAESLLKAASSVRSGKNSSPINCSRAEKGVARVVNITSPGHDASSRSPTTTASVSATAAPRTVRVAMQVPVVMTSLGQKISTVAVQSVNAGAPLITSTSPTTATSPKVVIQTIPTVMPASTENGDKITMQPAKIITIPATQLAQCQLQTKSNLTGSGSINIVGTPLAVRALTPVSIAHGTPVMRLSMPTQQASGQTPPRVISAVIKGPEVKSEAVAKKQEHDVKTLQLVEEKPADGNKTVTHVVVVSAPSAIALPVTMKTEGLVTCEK

| Sequence | binding signal (HSF1) | binding signal (ELF2) |
| --- | --- | --- |
| CGCAGG | 0.667 | 0.838 |
| GGTACC | 0.619 | 0.834 |
| AGCCTG | 0.887 | 0.837 |
| GGCAGA | 0.603 | 0.601 |
| AGTGCG | 0.695 | 0.908 |
| GGTAAG | 0.782 | 0.751 |
| TACCGT | 0.618 | 0.658 |
| CAGTGC | 0.661 | 0.719 |
| GGGCAC | 0.564 | 0.745 |
| CGGACA | 0.503 | 0.885 |
| GGCGAT | 0.855 | 0.798 |
| GATCAG | 0.866 | 0.699 |
| AGGTCA | 0.605 | 0.698 |
| AGCGTA | 0.867 | 0.908 |
| GCCGCG | 0.672 | 0.757 |
| GACGCG | 0.529 | 0.64 |
| GCGTGC | 0.648 | 0.713 |
| AGGAGT | 0.339 | 0.377 |
| GCGGTG | 0.42 | 0.517 |
| ACGTGG | 0.55 | 0.567 |
| CAGTAG | 0.616 | 0.593 |
| CCAGGT | 0.669 | 0.712 |
| ACGTAG | 0.681 | 0.738 |

| Sequence | binding signal (HSF1) | binding signal (ELF2) |
| --- | --- | --- |
| TGGCGG | 0.582 | 0.786 |
| GGACCG | 0.581 | 0.822 |
| GGCCGC | 0.639 | 0.756 |
| AGAGAC | 0.504 | 0.493 |
| CGAGGA | 0.717 | 0.675 |
| GGGTCA | 0.532 | 0.669 |
| CAAGAC | 0.749 | 0.833 |
| GACGTA | 0.631 | 0.723 |
| AGGTAC | 0.785 | 0.929 |
| TCGGAA | 0.506 | 0.594 |
| CGGGAA | 0.999 | 0.856 |
| CGGTAG | 0.518 | 0.829 |
| CGGTCC | 0.602 | 0.935 |
| AGGACA | 0.7 | 0.834 |
| AGAGTC | 0.447 | 0.42 |
| GCGGGG | 0.379 | 0.429 |
| GGGGGG | 0.412 | 0.546 |
| TTGTCG | 0.803 | 0.83 |
| CGTGAA | 0.546 | 0.442 |
| AGACGG | 0.342 | 0.379 |
| AGTAGT | 0.827 | 0.957 |
| AACCGT | 0.49 | 0.494 |
| CTGTGA | 0.425 | 0.476 |

| Sequence | binding signal (HSF1) | binding signal (ELF2) |
| --- | --- | --- |
| GACAAG | 0.691 | 0.743 |
| CAGGAC | 0.599 | 0.766 |
| CCGTAG | 0.809 | 0.859 |
| ACAGGT | 0.644 | 0.726 |
| GGAGAC | 0.137 | 0.144 |
| GGGGCC | 0.467 | 0.517 |
| TAGGTG | 0.819 | 0.805 |
| CGTAGG | 0.591 | 0.659 |
| AGGTTG | 0.642 | 0.75 |
| GATAGG | 0.757 | 0.813 |
| GAGGAT | 0.786 | 0.578 |
| GAGTAC | 0.477 | 0.527 |
| AAGCGT | 0.847 | 0.886 |
| GGCGGT | 0.31 | 0.412 |
| ACCGAG | 0.854 | 0.721 |
| GTGCAG | 0.582 | 0.712 |
| AGATAC | 0.954 | 0.937 |
| GCGAGC | 0.731 | 0.833 |
| AGATTG | 1.01 | 0.776 |
| TGCCGT | 0.727 | 0.791 |
| ATAGAG | 0.886 | 0.905 |
| GTCCGA | 0.743 | 0.812 |
| CGTAAG | 0.84 | 0.706 |

| Sequence | binding signal (HSF1) | binding signal (ELF2) |
| --- | --- | --- |
| GGCGGA | 0.227 | 0.46 |
| GCAGTA | 0.763 | 0.865 |
| AGAGCA | 0.709 | 0.745 |
| GGGAGC | 0.353 | 0.369 |
| GAACAG | 0.964 | 1.01 |
| GCCAGT | 0.295 | 0.302 |
| GGCTGA | 0.746 | 0.751 |
| ATGAGT | 0.612 | 0.653 |
| GCGGAT | 0.819 | 0.992 |
| TGCAGG | 0.798 | 1.03 |
| AGAACG | 0.752 | 0.451 |
| GGCGCC | 0.515 | 0.653 |
| TGCCAG | 0.855 | 0.663 |
| ATCGAG | 1.49 | 0.828 |
| AGGAGG | 0.216 | 0.212 |
| GGGTAA | 0.784 | 0.836 |
| ACGGTG | 0.475 | 0.506 |
| AGGCCA | 0.577 | 0.639 |
| GTGGGG | 0.487 | 0.551 |
| GGGTGA | 0.513 | 0.589 |
| ACGAGG | 0.673 | 0.776 |
| CGTAGA | 0.836 | 0.693 |
| CGCGGA | 0.701 | 1.23 |

Some of the entries so far, with tabs.
Sequence	binding signal (HSF1)	binding signal (ELF2)
AGAGCA	0.709	0.745
AGAACG	0.752	0.451
TGCCAG	0.855	0.663
AGGAGG	0.216	0.212
GGGTGA	0.513	0.589
CGCGGA	0.701	1.23

Later entries:

| Sequence | binding signal (HSF1) | binding signal (ELF2) |
| --- | --- | --- |
| CGTGCG | 0.585 | 0.652 |
| CGTTGA | 0.735 | 0.757 |
| GCAGTG | 0.447 | 0.524 |
| CGTGCT | 0.79 | 0.817 |
| GCAGGA | 0.604 | 0.905 |
| GAGGAG | 0.209 | 0.213 |
| CCAGAC | 0.858 | 0.645 |
| AAACGT | 0.884 | 0.937 |
| GAGAAC | 0.752 | 0.402 |
| GCAGGC | 0.528 | 0.711 |
| TGAGGT | 0.487 | 0.616 |
| CCAGTC | 0.274 | 0.267 |
| GCATAT | 0.815 | 0.935 |
| TGAGTT | 0.352 | 0.395 |
| AGCGCA | 0.818 | 0.926 |
| CACGAG | 0.894 | 0.811 |
| CACCAG | 0.737 | 0.691 |
| TCCAGG | 0.979 | 0.928 |
| CGGGTT | 0.682 | 1.06 |
| AAGTCG | 0.457 | 0.504 |
| GGATCG | 0.622 | 0.578 |
| AGGAGA | 0.239 | 0.205 |
